Results published in PMC12670160, “A drug-repurposing screen of FDA- and EMA-approved drugs identifies two NF-κB inhibitors active against eumycetoma” (Journal of Antimicrobial Chemotherapy, 2025).
Counter-ions that a name gives are not always drawn. The campaign covered roughly 5,300 compounds. About 130 (2.5%) showed an effect of 50% or more. Some of the results follow.

system: M. mycetomatis strain mm55; conditions: primary screen, metabolic activity vs growth control; 96 h, 2 µM; inhibitor

Compound | % viability [%]
CC(=O)OC/C=C(C)/C=C/C=C(C)/C=C/C1=C(C)CCCC1(C)C [ONC0003087, retinyl acetate] | 76.93
CCOc1cc2ncc(C#N)c(Nc3ccc(OCc4cccc(F)c4)c(Cl)c3)c2cc1NC(=O)/C=C/CN(C)C [ONC0000227, hki357] | 74.17
CCC(COC(=O)c1cc(OC)c(OC)c(OC)c1)(c1ccccc1)N(C)C (centres unmarked) [ONC0004247, trimebutine maleate] | 75.79
Clc1ccc2c(c1)N=C(N1CCNCC1)c1ccccc1N2 [ONC0001437, desmethylclozapine] | 51.88
CC(C)(C)NCC(O)c1ccc(O)cc1Cl (centres unmarked) [ONC0001099, hoku81] | 66.81
CC(C)Oc1cccc(-n2c(CCc3c[nH]c4ccc(Br)cc34)nc3ccccc3c2=O)c1 [ONC0001496, ly225910] | 56.54
CC[C@H](C)n1cc(C)c2c(C(=O)NCc3c(C)cc(C)[nH]c3=O)cc(-c3ccc(N4CCNCC4)nc3)cc21 [ONC0001059, gsk126] | 55.52
NC(=O)c1noc([C@H](CCCC2CCCCC2)CC(=O)NO)n1 [ONC0004989, uk 383367] | 94.55
CC1(CN2CCC(n3c(=O)[nH]c4ccccc43)CC2)OCc2ccccc2-n2cccc21 (centres unmarked) [ONC0000094, zaldaride maleate] | 79.02
COc1ccc(CCN(C)CCc2ccc(OC)c(OC)c2)cc1OC [ONC0001747, ys035] | 78.06
CC(=O)O[C@]1(C(C)=O)CC[C@H]2[C@@H]3C=C(C)C4=CC(=O)CC[C@@H]4[C@H]3CC[C@@]21C [ONC0002838, nomegestrolacetate] | 99
CC(C)[C@@H]1CC[C@@H](C)C[C@H]1O [ONC0003141, levomenthol] | 69.71
NC1(c2ccc(-c3nc4ccn5c(=O)[nH]nc5c4cc3-c3ccccc3)cc2)CCC1 [ONC0004905, mk2206 dihydrochloride] | 130.5
C[C@@H]1CC(=O)NN=C1c1ccc(NN=C(C#N)C#N)cc1 [ONC0002839, levosimendan] | 115.3
COc1ccc(-c2nc(C(=O)N3CCN(C)CC3)sc2-c2ccc(OC)cc2)cc1 [ONC0001615, fr122047] | 72.5
Cc1ccc(Oc2ccccc2-c2csc(N=C3NCCCN3)n2)c(C)c1 [ONC0002741, abafungin] | 79.84
COc1cccc(OC)c1-c1ccc(C[C@H](NC(=O)c2c(Cl)cccc2Cl)C(=O)O)cc1 [ONC0001090, tr14035] | 78.15

Single entries from the entries so far.
In % viability [%], CC(=O)OC/C=C(C)/C=C/C=C(C)/C=C/C1=C(C)CCCC1(C)C [ONC0003087, retinyl acetate] has 76.93
In % viability [%], CCOc1cc2ncc(C#N)c(Nc3ccc(OCc4cccc(F)c4)c(Cl)c3)c2cc1NC(=O)/C=C/CN(C)C [ONC0000227, hki357] has 74.17
